# Test results: PubChem BioAssay (EPA / NIEHS)
# Chains of the proteins cited; added tags and fusions are not shown. Lines headed by an entry give the natural chain unless they say otherwise; changes in a name come on top.
# UniProt P19793: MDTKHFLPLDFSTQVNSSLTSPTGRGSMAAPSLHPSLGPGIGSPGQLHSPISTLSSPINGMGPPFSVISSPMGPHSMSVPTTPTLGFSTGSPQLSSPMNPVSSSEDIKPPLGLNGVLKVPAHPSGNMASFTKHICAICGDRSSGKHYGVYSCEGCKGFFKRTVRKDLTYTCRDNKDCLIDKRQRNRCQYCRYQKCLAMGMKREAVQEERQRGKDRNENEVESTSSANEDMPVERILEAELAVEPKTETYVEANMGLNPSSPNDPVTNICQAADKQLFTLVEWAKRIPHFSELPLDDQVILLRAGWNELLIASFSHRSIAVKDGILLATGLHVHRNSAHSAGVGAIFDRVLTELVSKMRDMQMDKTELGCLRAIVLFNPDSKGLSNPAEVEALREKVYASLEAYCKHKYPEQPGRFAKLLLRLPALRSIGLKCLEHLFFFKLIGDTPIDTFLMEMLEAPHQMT
# Values joined by “and” are separate entries in the source; they are usually repeats but may differ in a detail not shown here. Equal entries are not always repeated. Inconclusive means that the source gave no clear call. Such entries were picked first, then a sample of the others. A potency beside an inconclusive call is a rough fit, not a confirmed value. More than one record can exist for a structure, and the calls need not agree. Active and inactive are the calls of the source. How the source made its calls: active means hit-call score of the fitted dose curve at least 0.9, where 1 is the maximum; inconclusive means response in the unintended direction; inactive means score below 0.9.
# Biological target: Retinoic acid receptor RXR-alpha (Homo sapiens) (UniProt P19793)
# Assay: OT_NURR1_NURR1RXRa_1440: Odyssey Thera (OT) 24-hour HEK293T Protein Complementation Assay for Nurr1/retinoid X receptor (RXR) (AID 2283386)
# Procedure, shortened: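 Fluorescence PCA read-out; HEK293T; 24 h post-dose; bait/prey fused to reporter fragments; gain-of-signal fit vs DMSO negative control.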
SMILES,AC50,outcome
CC(C)=CCCC(C)=CC#N,inconclusive: 51.5 µM,–
Cc1ccc([N+](=O)[O-])c(C)c1,inconclusive: 0.533 µM,–
CC[C@H](C)[C@@H](C(=O)O)n1sc2ccccc2c1=O,inconclusive: 50 µM,–
Cc1ccc(C(C)C)cc1,inconclusive: 50 µM,–
CN(C)CCOC(c1ccccc1)c1ccccc1,active: 6.73 µM,–
CNC(=O)[C@H]1O[C@@H](n2cnc3c(NCc4cc(Cl)ccc4OCc4cc(C)no4)ncnc32)[C@H](O)[C@@H]1N,–,inactive
COC(=O)c1ccc(C(=O)OC)cc1,inconclusive: 50 µM,–
CCC(Cc1c(I)cc(I)c(N)c1I)C(=O)O (configuration not stated),inconclusive: 75.4 µM,–
CC(C)(C)C(=O)c1ccccc1,–,inactive
CC(=O)S[C@@H]1CC2=CC(=O)CC[C@]2(C)[C@H]2CC[C@@]3(C)[C@@H](CC[C@@]34CCC(=O)O4)[C@H]12,inconclusive: 7.49 µM and inconclusive: 7.38 µM and inconclusive: 9.29 µM,–
c1ccc2occc2c1,inconclusive: 50 µM,–
CC(C)c1ccc(O)c(C(C)C)c1,inconclusive: 22.6 µM,–
CC(C)(C)c1ccc(OC(=O)c2ccccc2O)cc1,active: 89 µM,–
CCCCC(CC)COC(=O)/C=C/c1ccc(OC)cc1 (configuration not stated),–,inactive
CSc1ccc(Oc2ccc(S(N)(=O)=O)cc2CN(C)C)cc1C,active: 57.5 µM and active: 19 µM,–
CCc1c(C(=O)NN2CCCCC2)nn(-c2ccc(Cl)cc2Cl)c1-c1ccc(Br)cc1,–,inactive
CC1=CCC(=C(C)C)CC1,active: 77.4 µM,–
CCCCc1ccc2c(n1)[C@@H](c1ccc(OC)cc1C[C@H](C)C(=O)O)[C@H](C(=O)O)[C@H]2c1ccc2c(c1)OCO2,inconclusive: 50 µM,–
c1ccc(Cc2ccccc2)cc1,inconclusive: 50 µM,–
NCC1(Cc2noc(=O)[nH]2)CCCCC1,inconclusive: 50 µM,–
CCO[Si](CCCNC(N)=O)(OCC)OCC,inconclusive: 12 µM and inconclusive: 50 µM,–
CCCCC/C=C\CCC=O,–,inactive
CCCCOCCOCCOCCO,inconclusive: 28.5 µM,–
O=C(O)Cn1c(=O)n(Cc2ccc(Br)cc2F)c(=O)c2ccc(Cl)cc21,inconclusive: 50 µM,–
O=C(O)c1cccc(Oc2ccccc2)c1,inconclusive: 50 µM,–
CC(C)c1ccc2c(C(C)C)cc(C(C)C)c(S(=O)(=O)O)c2c1,inconclusive: 51.5 µM,–
CCCCCCOC(=O)c1ccccc1,inconclusive: 50 µM,–

# Quoted at random: 2 compounds from above
SMILES,AC50,outcome
CN(C)CCOC(c1ccccc1)c1ccccc1,active: 6.73 µM,–
CC(C)=CCCC(C)=CC#N,inconclusive: 51.5 µM,–
